Data reported in the supplement of paper PMC12823440, “Inhibitors supercharge kinase turnover through native proteolytic circuits” (Nature, 2025).
Some of the results follow. The calls rarely recur for the same compound in another form.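 Kinases, fused to nanoluciferase, were expressed in K562 cells; luminescence was measured every 4 h from 2 to 18 h as percent of control (DMSO = 100%, positive control = 0%). A time point is decreased if signal falls significantly (2 sigma). Hits were called by the authors by a rule that is not shown; the count of time points alone does not decide it.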

By UniProt entry, the sequences of proteins in these tests, tags left out. Where a name states a change or a piece, a line headed by the entry shows the natural chain unless it says otherwise.
UniProt Q15208: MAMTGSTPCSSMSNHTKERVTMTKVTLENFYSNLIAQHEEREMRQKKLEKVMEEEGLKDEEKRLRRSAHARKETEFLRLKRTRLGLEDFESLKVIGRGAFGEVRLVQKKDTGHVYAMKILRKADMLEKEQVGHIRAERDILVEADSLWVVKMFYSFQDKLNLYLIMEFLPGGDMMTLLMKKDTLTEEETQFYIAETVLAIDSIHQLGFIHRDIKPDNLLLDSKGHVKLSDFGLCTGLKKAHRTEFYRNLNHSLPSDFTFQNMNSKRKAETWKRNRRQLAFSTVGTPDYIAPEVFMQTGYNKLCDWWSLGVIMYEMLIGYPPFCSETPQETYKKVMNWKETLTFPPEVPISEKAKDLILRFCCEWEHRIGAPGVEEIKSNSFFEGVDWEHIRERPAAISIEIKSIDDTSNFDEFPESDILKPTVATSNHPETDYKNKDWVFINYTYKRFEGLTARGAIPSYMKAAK
UniProt P42680: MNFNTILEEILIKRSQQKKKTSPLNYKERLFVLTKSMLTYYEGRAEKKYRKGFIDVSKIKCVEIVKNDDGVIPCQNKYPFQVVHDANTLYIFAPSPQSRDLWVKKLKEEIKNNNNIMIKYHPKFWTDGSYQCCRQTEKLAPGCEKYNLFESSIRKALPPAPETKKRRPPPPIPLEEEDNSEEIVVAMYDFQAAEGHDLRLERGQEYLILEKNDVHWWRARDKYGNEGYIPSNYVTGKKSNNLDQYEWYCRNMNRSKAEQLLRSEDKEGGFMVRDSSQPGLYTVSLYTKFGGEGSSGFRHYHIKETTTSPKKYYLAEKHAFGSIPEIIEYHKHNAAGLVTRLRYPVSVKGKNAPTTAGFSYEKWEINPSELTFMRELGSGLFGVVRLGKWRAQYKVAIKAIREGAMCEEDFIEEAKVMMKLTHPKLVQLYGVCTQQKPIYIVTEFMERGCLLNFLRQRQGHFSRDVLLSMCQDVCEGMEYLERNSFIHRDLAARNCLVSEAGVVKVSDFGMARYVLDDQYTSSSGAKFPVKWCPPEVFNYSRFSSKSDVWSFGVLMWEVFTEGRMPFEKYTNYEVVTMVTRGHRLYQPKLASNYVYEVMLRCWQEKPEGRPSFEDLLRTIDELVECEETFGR
UniProt P29597: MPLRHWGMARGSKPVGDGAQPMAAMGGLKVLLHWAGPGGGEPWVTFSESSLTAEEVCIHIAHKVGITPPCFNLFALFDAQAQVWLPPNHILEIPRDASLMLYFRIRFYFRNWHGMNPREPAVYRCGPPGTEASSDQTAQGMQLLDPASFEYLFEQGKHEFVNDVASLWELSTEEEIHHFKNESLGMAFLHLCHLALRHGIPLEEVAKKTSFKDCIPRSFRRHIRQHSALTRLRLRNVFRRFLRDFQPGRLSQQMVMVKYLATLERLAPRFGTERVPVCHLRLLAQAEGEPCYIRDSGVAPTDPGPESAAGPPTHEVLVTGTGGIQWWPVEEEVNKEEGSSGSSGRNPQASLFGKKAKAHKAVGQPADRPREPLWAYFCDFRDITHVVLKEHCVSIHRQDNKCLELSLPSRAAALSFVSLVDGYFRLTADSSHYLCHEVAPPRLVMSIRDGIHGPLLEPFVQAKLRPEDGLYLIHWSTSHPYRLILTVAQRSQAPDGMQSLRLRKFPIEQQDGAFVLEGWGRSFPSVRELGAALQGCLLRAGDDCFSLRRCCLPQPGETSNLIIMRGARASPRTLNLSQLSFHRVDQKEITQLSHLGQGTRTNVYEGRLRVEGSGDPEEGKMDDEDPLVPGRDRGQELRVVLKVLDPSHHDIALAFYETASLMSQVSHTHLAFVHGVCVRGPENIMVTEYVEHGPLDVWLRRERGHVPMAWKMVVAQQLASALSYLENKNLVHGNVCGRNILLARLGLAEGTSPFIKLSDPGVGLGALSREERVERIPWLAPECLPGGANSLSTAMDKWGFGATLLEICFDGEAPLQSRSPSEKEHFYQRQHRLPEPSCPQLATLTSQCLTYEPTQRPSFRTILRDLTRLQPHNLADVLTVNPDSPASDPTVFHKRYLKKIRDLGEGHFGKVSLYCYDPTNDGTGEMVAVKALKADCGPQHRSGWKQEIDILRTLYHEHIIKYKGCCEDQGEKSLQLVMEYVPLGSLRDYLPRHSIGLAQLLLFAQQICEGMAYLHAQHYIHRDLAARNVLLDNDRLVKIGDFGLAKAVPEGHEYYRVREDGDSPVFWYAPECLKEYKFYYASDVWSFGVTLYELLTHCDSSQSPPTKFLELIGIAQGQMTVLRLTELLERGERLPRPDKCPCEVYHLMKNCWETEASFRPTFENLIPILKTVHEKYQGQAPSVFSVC
UniProt Q6PHR2: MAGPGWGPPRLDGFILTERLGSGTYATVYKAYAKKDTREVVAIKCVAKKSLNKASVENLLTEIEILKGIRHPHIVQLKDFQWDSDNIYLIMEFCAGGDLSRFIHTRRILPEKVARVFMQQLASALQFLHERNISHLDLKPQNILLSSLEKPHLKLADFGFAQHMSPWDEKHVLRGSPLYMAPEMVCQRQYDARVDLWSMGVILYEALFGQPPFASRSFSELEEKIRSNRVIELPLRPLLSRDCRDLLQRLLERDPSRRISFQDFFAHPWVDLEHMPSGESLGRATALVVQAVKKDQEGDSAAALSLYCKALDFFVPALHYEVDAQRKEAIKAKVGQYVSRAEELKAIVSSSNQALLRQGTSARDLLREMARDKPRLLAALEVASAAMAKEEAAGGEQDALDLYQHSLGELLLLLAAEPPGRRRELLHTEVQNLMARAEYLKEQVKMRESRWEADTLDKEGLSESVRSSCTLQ
UniProt P07947, whole entry, looked up: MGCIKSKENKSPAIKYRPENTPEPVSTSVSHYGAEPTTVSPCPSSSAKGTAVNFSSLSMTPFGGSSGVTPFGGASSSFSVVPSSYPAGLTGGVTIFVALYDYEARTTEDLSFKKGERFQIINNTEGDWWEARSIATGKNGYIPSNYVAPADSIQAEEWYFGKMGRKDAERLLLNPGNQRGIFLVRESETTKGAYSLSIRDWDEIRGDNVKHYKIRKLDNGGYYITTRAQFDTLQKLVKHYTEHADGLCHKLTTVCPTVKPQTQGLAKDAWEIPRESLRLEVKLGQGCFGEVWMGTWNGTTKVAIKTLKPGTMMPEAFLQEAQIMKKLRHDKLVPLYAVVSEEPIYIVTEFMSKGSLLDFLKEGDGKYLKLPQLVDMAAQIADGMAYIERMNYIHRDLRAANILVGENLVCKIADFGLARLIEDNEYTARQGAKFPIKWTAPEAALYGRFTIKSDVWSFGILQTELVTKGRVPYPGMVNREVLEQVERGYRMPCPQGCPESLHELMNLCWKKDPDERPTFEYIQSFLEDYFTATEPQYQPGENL
UniProt P43403: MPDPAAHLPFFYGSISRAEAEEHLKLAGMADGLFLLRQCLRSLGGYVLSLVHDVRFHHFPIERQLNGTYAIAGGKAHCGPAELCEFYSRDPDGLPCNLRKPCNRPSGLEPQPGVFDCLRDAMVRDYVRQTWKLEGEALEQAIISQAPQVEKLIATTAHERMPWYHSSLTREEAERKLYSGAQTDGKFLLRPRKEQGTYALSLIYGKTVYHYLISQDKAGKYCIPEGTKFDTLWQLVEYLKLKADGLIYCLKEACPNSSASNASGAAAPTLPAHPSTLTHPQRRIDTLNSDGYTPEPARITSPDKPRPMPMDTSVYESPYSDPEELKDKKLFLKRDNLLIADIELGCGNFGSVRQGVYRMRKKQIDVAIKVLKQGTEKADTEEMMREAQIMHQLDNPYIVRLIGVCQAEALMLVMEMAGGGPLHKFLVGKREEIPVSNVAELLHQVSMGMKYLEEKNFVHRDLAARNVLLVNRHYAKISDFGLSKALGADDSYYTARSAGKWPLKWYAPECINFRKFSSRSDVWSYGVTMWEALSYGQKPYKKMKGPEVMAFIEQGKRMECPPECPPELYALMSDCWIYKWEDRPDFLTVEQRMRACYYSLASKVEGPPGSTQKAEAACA
UniProt P00519, whole entry: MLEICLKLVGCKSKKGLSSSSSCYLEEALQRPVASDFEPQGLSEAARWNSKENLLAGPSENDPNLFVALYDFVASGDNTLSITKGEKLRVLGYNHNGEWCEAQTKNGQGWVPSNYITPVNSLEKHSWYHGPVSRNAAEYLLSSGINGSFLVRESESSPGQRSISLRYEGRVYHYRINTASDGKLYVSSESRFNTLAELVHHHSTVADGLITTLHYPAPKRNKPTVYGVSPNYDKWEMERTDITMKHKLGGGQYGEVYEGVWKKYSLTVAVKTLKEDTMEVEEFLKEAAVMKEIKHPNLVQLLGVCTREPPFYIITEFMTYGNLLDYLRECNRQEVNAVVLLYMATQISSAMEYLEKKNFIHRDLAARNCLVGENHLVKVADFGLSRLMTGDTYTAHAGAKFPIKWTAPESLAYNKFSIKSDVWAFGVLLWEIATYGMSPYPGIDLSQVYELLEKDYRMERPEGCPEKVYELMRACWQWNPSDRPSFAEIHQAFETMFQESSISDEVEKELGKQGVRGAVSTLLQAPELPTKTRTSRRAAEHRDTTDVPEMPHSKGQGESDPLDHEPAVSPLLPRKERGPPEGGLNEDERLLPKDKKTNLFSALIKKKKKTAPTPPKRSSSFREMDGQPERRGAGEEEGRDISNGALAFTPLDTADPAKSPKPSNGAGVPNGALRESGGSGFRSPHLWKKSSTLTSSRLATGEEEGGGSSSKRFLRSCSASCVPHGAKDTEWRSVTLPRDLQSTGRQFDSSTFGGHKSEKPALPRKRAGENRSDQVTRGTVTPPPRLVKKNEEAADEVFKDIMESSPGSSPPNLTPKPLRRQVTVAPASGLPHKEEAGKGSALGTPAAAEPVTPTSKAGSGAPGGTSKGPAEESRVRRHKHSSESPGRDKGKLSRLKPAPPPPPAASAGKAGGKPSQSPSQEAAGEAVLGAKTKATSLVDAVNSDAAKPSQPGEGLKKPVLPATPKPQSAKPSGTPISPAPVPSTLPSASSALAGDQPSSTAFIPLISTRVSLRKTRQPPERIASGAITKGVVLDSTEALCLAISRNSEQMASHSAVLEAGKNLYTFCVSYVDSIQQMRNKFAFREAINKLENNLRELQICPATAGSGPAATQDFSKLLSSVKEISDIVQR
UniProt P31749: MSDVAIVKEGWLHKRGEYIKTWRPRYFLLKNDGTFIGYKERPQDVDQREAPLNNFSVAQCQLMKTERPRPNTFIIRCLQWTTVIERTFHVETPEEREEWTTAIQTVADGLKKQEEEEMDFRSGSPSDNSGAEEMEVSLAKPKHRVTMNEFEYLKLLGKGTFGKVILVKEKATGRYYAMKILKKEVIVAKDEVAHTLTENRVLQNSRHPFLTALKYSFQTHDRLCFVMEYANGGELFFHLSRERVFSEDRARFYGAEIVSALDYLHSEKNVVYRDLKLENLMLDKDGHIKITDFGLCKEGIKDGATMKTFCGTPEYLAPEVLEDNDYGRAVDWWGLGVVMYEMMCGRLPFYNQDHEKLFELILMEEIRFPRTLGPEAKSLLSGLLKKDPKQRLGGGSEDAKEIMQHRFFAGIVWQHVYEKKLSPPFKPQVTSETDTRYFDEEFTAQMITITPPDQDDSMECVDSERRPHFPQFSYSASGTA

Assays:
Conditions in all cases: K562; 2-18 h
STK38 = STK38 (UniProt Q15208); assay: kinase-Nluc reporter destabilization hit call (1 = scored as downregulated) (binary); higher = compound decreases kinase abundance
SYK = SYK (UniProt P43405); assay: as above
TEC = TEC (UniProt P42680); assay: as above
TYK2 = TYK2 (UniProt P29597); assay: as above
ULK3 = ULK3 (UniProt Q6PHR2); assay: as above
YES1 = YES1 (UniProt P07947); assay: as above
ZAK = ZAK (UniProt Q9NYL2); assay: as above
ZAP70 = ZAP70 (UniProt P43403); assay: as above
ABL1 = ABL1 (UniProt P00519); assay: number of time points (of 5) at which kinase-Nluc abundance scored as decreased, DMSO-normalised (count); higher = more persistent destabilization
AKT1 = AKT1 (UniProt P31749); assay: as above

Row | Structure (SMILES) | kinase-Nluc reporter destabilization hit call (STK38) | kinase-Nluc reporter destabilization hit call (SYK) | kinase-Nluc reporter destabilization hit call (TEC) | kinase-Nluc reporter destabilization hit call (TYK2) | kinase-Nluc reporter destabilization hit call (ULK3) | kinase-Nluc reporter destabilization hit call (YES1) | kinase-Nluc reporter destabilization hit call (ZAK) | kinase-Nluc reporter destabilization hit call (ZAP70) | number of time points (ABL1) | number of time points (AKT1)
1 | O=C(NOCCO)c1ccc2cncn2c1Nc1ccc(I)cc1F (10 µM) | inactive: 0 | inactive: 0 | inactive: 0 | inactive: 0 | inactive: 0 | inactive: 0 | inactive: 0 | inactive: 0 | 0 | 0
2 | Cn1cc(-c2ccc3nnc(C(F)(F)c4ccc5ncccc5c4)n3n2)cn1 (10 µM) | inactive: 0 | inactive: 0 | inactive: 0 | inactive: 0 | inactive: 0 | inactive: 0 | inactive: 0 | inactive: 0 | 0 | 0
3 | COc1cc(-c2cc(-c3cc(OC)c(OC)c(OC)c3)cc(C(F)P(=O)(OCOC(=O)C(C)(C)C)OCOC(=O)C(C)(C)C)c2)cc(OC)c1OC (stereo not given) [Stafia-1-dipivaloyloxymethyl ester] (2.5 µM) | inactive: 0 | inactive: 0 | inactive: 0 | inactive: 0 | inactive: 0 | inactive: 0 | inactive: 0 | inactive: 0 | 1 | 0
4 | C=CC(=O)Nc1cccc(Oc2nc(Nc3ccc(N4CCN(C)CC4)cc3)nc3ccoc23)c1 [Poseltinib] (10 µM) | inactive: 0 | inactive: 0 | inactive: 0 | inactive: 0 | inactive: 0 | inactive: 0 | inactive: 0 | inactive: 0 | 0 | 0
5 | CC(C)Oc1ccc(-c2cnc3c(-c4ccnc5ccccc45)cnn3c2)cc1 (10 µM) | inactive: 0 | inactive: 0 | inactive: 0 | inactive: 0 | inactive: 0 | inactive: 0 | inactive: 0 | inactive: 0 | 0 | 0
6 | O=c1ccc2ccc(O)c(O)c2o1 [Daphnetin] (10 µM) | inactive: 0 | inactive: 0 | inactive: 0 | inactive: 0 | inactive: 0 | inactive: 0 | inactive: 0 | inactive: 0 | 0 | 0
